From paper doi:10.1101/2023.01.23.525191
No constants are given. Whether binding was seen depends on the method and setting. Binding seen in cells or lysates may run through a third protein. Some entries that bind do so weakly or less than the wild type.

Chains of the proteins cited; added tags and fusions are not shown.
UniProt P26599: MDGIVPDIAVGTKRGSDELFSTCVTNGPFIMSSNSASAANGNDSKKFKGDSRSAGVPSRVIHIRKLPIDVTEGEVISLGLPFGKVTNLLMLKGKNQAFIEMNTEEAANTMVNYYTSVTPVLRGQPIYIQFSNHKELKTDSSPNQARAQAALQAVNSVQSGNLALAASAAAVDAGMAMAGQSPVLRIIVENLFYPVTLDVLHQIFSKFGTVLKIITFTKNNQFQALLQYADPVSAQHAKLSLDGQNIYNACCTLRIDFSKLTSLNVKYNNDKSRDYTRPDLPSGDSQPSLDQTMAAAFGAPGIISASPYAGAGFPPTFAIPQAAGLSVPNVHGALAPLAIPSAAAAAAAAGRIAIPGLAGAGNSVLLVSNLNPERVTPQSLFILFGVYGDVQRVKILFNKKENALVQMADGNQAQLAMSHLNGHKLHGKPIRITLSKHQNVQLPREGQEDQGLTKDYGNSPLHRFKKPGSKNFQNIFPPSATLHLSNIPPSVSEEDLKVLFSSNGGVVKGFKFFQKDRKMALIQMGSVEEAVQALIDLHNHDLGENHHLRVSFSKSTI

What was measured:
[1] = biological target: StrepII-His6-RBPMS-A (rat); experiment: pull-down
[2] = biological target: StrepII-His6-RBPMS-A-K100E (rat); experiment: pull-down
[3] = biological target: recombinant untagged full length rat RBPMS-A (rat); experiment: co-sedimentation

| binding [1] | binding [2] | binding [3] | Molecule |
| --- | --- | --- | --- |
| binds |  |  | ESRP2 (protein, UniProt Q9H6T0 1-727) MTPPPPPPPPPGPDPAADPAADPCPWPGSLVVLFGATAGALGRDLGSDETDLILLVWQVVEPRSRQVGTLHKSLVRAEAAALSTQCREASGLSADSLARAEPLDKVLQQFSQLVNGDVALLGGGPYMLCTDGQQLLRQVLHPEASRKNLVLPDMFFSFYDLRREFHMQHPSTCPARDLTVATMAQGLGLETDATEDDFGVWEVKTMVAVILHLLKEPSSQLFSKPEVIKQKYETGPCSDSTVPCPYSSKADVVDSETVVRARGLPWQSSDQDVARFFKGLNVARGGVALCLNAQGRRNGEALIRFVDSEQRDLALQRHKHHMGVRYIEVYKATGEEFVKIAGGTSLEVARFLSREDQVILRLRGLPFSAGPTDVLGFLGPECPVTGGTEGLLFVRHPDGRPTGDAFALFACEELAQAALRRHKGMLGKRYIELFRSTAAEVQQVLNRYASGPLLPTLTAPLLPIPFPLAPGTGRDCVRLRGLPYTATIEDILSFLGEAAADIRPHGVHMVLNQQGRPSGDAFIQMTSAERALAAAQRCHKKVMKERYVEVVPCSTEEMSRVLMGGTLGRSGMSPPPCKLPCLSPPTYTTFQATPTLIPTETAALYPSSALLPAARVPAAPTPVAYYPGPATQLYLNYTAYYPSPPVSPTTVGYLTTPTAALASAPTSVLSQSGALVRMQGVPYTAGMKDLLSVFQAYQLPADDYTSLMPVGDPPRTVLQAPKEWVCL |
| binds |  |  | RBM14 (protein, UniProt Q96PK6 1-669) MKIFVGNVDGADTTPEELAALFAPYGTVMSCAVMKQFAFVHMRENAGALRAIEALHGHELRPGRALVVEMSRPRPLNTWKIFVGNVSAACTSQELRSLFERRGRVIECDVVKDYAFVHMEKEADAKAAIAQLNGKEVKGKRINVELSTKGQKKGPGLAVQSGDKTKKPGAGDTAFPGTGGFSATFDYQQAFGNSTGGFDGQARQPTPPFFGRDRSPLRRSPPRASYVAPLTAQPATYRAQPSVSLGAAYRAQPSASLGVGYRTQPMTAQAASYRAQPSVSLGAPYRGQLASPSSQSAAASSLGPYGGAQPSASALSSYGGQAAAASSLNSYGAQGSSLASYGNQPSSYGAQAASSYGVRAAASSYNTQGAASSLGSYGAQAASYGAQSAASSLAYGAQAASYNAQPSASYNAQSAPYAAQQAASYSSQPAAYVAQPATAAAYASQPAAYAAQATTPMAGSYGAQPVVQTQLNSYGAQASMGLSGSYGAQSAAAATGSYGAAAAYGAQPSATLAAPYRTQSSASLAASYAAQQHPQAAASYRGQPGNAYDGAGQPSAAYLSMSQGAVANANSTPPPYERTRLSPPRASYDDPYKKAVAMSKRYGSDRRLAELSDYRRLSESQLSFRRSPTKSSLDYRRLPDAHSDYARYSGSYNDYLRAAQMHSGYQRRM |

Second part, the molecule before the results:

| Molecule | binding [1] | binding [2] | binding [3] |
| --- | --- | --- | --- |
| PTBP1 (from UniProt P26599 1-557) | no binding (tested: 2 μM) |  |  |
| MATR3 (protein, UniProt P43243 1-847) MSKSFQQSSLSRDSQGHGRDLSAAGIGLLAAATQSLSMPASLGRMNQGTARLASLMNLGMSSSLNQQGAHSALSSASTSSHNLQSIFNIGSRGPLPLSSQHRGDADQASNILASFGLSARDLDELSRYPEDKITPENLPQILLQLKRRRTEEGPTLSYGRDGRSATREPPYRVPRDDWEEKRHFRRDSFDDRGPSLNPVLDYDHGSRSQESGYYDRMDYEDDRLRDGERCRDDSFFGETSHNYHKFDSEYERMGRGPGPLQERSLFEKKRGAPPSSNIEDFHGLLPKGYPHLCSICDLPVHSNKEWSQHINGASHSRRCQLLLEIYPEWNPDNDTGHTMGDPFMLQQSTNPAPGILGPPPPSFHLGGPAVGPRGNLGAGNGNLQGPRHMQKGRVETSRVVHIMDFQRGKNLRYQLLQLVEPFGVISNHLILNKINEAFIEMATTEDAQAAVDYYTTTPALVFGKPVRVHLSQKYKRIKKPEGKPDQKFDQKQELGRVIHLSNLPHSGYSDSAVLKLAEPYGKIKNYILMRMKSQAFIEMETREDAMAMVDHCLKKALWFQGRCVKVDLSEKYKKLVLRIPNRGIDLLKKDKSRKRSYSPDGKESPSDKKSKTDGSQKTESSTEGKEQEEKSGEDGEKDTKDDQTEQEPNMLLESEDELLVDEEEAAALLESGSSVGDETDLANLGDVASDGKKEPSDKAVKKDGSASAAAKKKLKKVDKIEELDQENEAALENGIKNEENTEPGAESSENADDPNKDTSENADGQSDENKDDYTIPDEYRIGPYQPNVPVGIDYVIPKTGFYCKLCSLFYTNEEVAKNTHCSSLPHYQKLKKFLNKLAEERRQKKET | binds |  |  |
| RBFOX2 (protein, UniProt O43251 1-390) MQNEPLTPGYHGFPARDSQGNQEPTTTPDAMVQPFTTIPFPPPPQNGIPTEYGVPHTQDYAGQTGEHNLTLYGSTQAHGEQSSNSPSTQNGSLTTEGGAQTDGQQSQTQSSENSESKSTPKRLHVSNIPFRFRDPDLRQMFGQFGKILDVEIIFNERGSKGFGFVTFENSADADRAREKLHGTVVEGRKIEVNNATARVMTNKKMVTPYANGWKLSPVVGAVYGPELYAASSFQADVSLGNDAAVPLSGRGGINTYIPLISLPLVPGFPYPTAATTAAAFRGAHLRGRGRTVYGAVRAVPPTAIPAYPGVVYQDGFYGADLYGGYAAYRYAQPATATAATAAAAAAAAYSDGYGRVYTADPYHALAPAASYGVGAVASLYRGGYSRFAPY | binds | binds | binds |
